Test results reported in US20210115146A1.
These are yes or no findings as the source states them, for the method shown. Some entries that bind do so weakly or less than the wild type. Where a sequence is shown, tags or fusion partners need not be part of it.

B1: W5626-2C2-z22 (humanized VHH of W5626-2C2 further comprising a human Fc of IgG1 isotype) (Fc fusion, not shown: a dimerising Fc or GST)
chain: EVQLVESGGGLVQPGGSLRLSCAASGRTHSNYVMGWFRQAPGQEREFVAGISRTYGNTYYRDSVEGRFTISRDNSKNTLYLQMNSLRAEDTAVYYCAADPTRSEVILTTSHRYVYWGQGTLVTVSS
B2: W5626-2C10-z5 (humanized VHH of W5626-2C10 further comprising a human Fc of IgG1 isotype) (Fc fusion, not shown: a dimerising Fc or GST)
chain: AVQLVESGGGLVQPGGSLTLSCAASGRTFSSYAMGWFRQAPGKEREFVAADRWSGGNTRYADSVKGRFTISRDNAKNTLYLQMNSLRAEDTAVYYCAATYLSSDYEWGVPPKAYDYDYWGQGTLVTVSS

Target: Macaca fascicularis EGFR (cell surface) (Macaca fascicularis)
Test: FACS, FITC anti-human IgG

| Binder | binding |
| --- | --- |
| B1 | binds |
| B2 | binds |
